Data reported in the supplement of paper PMC10849652.
This is one part of the list.

By UniProt entry, the sequences of proteins in these tests, tags left out. Where a name states a change or a piece, a line headed by the entry shows the natural chain unless it says otherwise.
UniProt Q99547: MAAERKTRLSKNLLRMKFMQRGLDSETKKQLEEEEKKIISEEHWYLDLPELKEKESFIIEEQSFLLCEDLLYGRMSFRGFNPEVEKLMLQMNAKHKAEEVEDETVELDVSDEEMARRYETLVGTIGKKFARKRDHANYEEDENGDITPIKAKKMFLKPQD
UniProt Q7L1V2: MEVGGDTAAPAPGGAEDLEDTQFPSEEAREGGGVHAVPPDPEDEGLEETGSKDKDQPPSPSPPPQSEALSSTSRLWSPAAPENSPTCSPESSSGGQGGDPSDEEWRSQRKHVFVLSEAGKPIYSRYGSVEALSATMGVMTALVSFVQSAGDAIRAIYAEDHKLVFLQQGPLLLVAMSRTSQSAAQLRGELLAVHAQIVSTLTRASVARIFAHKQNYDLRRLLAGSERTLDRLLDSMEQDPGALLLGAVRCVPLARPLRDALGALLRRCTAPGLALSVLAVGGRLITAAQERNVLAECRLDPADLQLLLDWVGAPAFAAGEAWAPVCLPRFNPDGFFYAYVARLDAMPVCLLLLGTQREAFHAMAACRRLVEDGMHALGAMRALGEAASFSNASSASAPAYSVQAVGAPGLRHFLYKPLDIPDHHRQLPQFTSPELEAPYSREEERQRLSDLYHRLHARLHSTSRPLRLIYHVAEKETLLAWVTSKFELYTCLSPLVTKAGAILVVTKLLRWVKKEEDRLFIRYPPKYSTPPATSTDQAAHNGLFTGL
UniProt Q9BWT6: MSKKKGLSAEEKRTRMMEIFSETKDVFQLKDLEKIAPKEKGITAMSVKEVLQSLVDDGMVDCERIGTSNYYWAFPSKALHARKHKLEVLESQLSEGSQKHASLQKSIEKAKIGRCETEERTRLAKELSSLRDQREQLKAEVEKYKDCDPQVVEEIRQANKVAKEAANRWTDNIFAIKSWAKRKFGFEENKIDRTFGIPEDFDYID
UniProt Q03111: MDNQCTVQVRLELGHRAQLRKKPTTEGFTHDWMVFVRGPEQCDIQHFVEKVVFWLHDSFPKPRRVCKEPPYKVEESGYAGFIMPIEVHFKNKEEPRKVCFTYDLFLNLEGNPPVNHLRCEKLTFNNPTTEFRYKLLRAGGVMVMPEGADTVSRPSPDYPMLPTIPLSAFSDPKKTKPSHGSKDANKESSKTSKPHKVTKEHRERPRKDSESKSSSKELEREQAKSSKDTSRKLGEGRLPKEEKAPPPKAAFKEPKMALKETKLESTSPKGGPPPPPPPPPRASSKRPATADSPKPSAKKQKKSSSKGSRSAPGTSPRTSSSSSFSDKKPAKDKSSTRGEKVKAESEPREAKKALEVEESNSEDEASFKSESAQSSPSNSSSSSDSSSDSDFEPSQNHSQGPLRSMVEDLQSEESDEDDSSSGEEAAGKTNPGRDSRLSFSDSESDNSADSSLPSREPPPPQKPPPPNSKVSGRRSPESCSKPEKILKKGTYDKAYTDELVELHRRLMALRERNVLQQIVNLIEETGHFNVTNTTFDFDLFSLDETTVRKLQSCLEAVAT
UniProt Q9UQ53: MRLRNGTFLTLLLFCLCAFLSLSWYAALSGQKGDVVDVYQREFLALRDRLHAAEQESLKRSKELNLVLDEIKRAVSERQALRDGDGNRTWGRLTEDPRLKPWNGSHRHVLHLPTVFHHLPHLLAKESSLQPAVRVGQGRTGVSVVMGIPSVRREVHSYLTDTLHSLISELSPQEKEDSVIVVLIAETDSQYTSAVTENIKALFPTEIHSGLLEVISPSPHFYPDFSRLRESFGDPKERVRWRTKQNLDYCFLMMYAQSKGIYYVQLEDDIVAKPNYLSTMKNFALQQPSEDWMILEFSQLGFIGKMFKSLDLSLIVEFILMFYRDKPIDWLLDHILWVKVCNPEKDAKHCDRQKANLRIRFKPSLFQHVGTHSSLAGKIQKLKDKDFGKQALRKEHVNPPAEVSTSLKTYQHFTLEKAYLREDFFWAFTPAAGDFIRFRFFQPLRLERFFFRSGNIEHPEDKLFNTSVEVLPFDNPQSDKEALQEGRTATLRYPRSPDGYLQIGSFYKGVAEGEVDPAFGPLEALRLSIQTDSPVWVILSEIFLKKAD
UniProt Q9Y6X9: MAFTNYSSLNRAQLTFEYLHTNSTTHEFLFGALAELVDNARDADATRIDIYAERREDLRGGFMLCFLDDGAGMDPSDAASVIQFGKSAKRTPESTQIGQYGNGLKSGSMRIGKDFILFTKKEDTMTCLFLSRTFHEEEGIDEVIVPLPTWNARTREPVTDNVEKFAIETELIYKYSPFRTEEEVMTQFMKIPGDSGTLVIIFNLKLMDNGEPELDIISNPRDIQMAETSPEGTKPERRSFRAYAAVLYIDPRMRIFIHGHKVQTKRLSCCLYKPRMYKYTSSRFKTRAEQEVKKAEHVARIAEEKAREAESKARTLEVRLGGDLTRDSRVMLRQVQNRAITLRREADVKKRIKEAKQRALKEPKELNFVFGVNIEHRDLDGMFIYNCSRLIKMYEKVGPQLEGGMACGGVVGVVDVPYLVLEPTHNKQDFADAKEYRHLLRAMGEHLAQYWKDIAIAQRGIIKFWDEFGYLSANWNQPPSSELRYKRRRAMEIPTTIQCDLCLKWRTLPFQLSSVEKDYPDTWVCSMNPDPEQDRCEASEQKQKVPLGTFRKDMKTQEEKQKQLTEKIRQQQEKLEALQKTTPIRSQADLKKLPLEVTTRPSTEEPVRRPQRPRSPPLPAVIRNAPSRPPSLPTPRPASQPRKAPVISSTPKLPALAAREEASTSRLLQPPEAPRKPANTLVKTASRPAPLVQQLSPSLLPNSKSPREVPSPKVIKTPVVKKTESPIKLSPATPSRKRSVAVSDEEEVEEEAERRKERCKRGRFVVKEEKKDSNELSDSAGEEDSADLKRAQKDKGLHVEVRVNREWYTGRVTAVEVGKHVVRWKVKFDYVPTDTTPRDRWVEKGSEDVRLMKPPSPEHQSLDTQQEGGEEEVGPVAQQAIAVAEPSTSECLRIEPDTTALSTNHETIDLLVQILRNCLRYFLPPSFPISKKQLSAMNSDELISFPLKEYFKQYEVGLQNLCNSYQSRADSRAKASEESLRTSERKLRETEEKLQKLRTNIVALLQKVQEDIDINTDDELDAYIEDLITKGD
UniProt Q9NXC5: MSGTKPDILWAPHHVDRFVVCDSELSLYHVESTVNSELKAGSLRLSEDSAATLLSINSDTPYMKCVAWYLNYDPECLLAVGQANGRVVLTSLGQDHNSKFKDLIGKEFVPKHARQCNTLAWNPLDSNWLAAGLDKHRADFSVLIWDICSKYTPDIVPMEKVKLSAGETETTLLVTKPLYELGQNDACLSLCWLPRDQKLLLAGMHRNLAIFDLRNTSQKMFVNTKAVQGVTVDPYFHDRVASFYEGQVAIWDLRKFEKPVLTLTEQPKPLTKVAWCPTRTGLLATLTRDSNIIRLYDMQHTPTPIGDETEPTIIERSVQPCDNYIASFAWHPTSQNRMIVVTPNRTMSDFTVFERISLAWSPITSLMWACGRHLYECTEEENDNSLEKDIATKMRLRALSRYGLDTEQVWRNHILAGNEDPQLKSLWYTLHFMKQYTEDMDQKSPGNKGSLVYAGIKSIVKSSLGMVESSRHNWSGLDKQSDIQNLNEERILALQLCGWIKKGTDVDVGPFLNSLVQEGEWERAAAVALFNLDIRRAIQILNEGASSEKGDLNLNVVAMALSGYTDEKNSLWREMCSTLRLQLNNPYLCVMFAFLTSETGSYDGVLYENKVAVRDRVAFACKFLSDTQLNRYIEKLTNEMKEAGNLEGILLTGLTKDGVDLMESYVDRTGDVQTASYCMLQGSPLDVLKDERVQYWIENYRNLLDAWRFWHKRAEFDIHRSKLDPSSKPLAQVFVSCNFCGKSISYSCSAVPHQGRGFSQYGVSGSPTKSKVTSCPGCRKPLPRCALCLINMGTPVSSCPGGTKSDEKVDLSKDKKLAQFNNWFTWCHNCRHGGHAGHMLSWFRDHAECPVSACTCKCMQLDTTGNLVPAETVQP
UniProt Q9BRT3: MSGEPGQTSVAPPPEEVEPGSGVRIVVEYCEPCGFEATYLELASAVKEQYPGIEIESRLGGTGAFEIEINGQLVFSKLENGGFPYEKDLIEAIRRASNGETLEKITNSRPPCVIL
UniProt Q9NV56, whole entry, looked up: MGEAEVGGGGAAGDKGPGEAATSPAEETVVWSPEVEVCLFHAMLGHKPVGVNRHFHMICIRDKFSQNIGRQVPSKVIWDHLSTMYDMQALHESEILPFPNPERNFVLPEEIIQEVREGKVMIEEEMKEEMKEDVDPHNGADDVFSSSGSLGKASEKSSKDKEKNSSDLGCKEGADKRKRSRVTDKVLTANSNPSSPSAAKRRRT
UniProt P10620: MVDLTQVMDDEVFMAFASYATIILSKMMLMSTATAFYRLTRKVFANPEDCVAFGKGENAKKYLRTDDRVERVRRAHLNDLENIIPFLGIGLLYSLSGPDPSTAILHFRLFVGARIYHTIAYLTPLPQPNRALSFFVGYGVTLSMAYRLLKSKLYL
UniProt O14880: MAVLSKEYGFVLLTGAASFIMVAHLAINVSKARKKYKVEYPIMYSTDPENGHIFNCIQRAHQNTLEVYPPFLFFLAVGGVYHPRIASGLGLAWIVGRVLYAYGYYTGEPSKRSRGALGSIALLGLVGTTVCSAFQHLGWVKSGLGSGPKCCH
UniProt O95563: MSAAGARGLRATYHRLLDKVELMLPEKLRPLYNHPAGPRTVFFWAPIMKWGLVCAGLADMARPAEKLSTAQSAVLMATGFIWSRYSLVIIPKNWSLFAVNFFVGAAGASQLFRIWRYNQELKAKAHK
UniProt Q14149: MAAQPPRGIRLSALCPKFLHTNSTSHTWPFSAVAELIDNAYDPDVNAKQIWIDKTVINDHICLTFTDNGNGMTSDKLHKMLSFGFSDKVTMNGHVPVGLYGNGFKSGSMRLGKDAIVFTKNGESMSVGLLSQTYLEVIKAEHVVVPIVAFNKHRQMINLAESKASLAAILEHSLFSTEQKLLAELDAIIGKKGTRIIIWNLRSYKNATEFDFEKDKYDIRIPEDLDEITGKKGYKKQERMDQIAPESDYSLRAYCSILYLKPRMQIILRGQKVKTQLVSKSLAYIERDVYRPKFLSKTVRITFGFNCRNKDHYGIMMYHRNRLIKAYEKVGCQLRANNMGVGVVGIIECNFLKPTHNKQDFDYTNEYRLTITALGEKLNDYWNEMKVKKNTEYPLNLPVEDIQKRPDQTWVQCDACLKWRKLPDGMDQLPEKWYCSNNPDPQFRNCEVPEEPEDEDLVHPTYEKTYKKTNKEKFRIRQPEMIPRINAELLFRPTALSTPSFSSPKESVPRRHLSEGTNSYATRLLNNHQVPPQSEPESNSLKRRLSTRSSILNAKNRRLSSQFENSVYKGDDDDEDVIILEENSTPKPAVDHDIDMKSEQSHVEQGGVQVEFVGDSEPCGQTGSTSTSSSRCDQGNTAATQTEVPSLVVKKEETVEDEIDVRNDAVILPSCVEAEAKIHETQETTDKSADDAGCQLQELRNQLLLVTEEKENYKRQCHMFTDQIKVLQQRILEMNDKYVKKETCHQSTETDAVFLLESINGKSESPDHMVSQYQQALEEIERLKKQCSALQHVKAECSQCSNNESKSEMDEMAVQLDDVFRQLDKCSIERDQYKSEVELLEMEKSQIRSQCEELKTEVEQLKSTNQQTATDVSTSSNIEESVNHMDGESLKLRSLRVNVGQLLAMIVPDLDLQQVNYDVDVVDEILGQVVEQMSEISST
UniProt P29372, whole entry, looked up: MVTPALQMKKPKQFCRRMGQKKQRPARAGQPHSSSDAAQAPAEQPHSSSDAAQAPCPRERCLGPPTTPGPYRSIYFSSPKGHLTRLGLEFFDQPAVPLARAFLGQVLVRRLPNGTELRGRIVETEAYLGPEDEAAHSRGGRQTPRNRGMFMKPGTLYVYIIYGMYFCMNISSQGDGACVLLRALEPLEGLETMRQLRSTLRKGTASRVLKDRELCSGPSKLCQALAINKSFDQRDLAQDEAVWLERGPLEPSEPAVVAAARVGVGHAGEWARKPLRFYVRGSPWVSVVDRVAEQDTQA
UniProt Q9UHC7: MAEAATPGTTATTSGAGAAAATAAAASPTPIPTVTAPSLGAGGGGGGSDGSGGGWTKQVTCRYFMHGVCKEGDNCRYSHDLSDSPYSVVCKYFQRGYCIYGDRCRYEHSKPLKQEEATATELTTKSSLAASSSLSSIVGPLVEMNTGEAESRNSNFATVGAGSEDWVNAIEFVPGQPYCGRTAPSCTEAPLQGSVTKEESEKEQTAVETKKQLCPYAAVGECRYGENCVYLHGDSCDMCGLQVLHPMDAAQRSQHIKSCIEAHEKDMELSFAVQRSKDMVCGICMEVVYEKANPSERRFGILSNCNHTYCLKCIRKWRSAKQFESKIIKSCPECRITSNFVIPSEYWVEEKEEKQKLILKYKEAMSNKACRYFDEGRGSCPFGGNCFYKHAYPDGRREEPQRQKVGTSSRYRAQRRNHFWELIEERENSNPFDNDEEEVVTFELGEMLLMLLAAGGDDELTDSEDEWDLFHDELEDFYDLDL
UniProt Q9Y605: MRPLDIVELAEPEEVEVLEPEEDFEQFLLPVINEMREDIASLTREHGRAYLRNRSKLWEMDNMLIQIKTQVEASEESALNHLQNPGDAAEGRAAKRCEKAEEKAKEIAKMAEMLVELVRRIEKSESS

Columns and labels:
Assay in all cases: log2 fold change, soluble protein after heating vs DMSO (PISA); higher = thermal stabilisation; K562 lysate, 10 uM; active = over 0.2 and 3.5 SD of the protein, either way, in both replicates (recomputed)
[1] = compound: Cc1cn(-c2cc(NC(=O)c3ccc(C)c(Nc4nccc(-c5cccnc5)n4)c3)cc(C(F)(F)F)c2)cn1 [nilotinib]
Outline: (§1)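 Values give the log-two fold change in thermal stability against solvent controls, from duplicates. Crude K562 extract at 1 mg/mL protein, made by dounce homogenisation in PBS pH 7.4 with 1 mM MgCl2, was treated with 10 μM compound for 30 min. After 3 min heating across 48°C-58°C, aliquots were pooled, adjusted to 0.5% NP-40 at 4°C and centrifuged at 21,000xg for 90 min. The supernatant was measured by TMTpro 16plex LC-MS/MS with channel sums equalised.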

[2] = compound: Cc1nc(Nc2n[nH]c3c2CN(C(=O)N[C@H](CN(C)C)c2ccccc2)C3(C)C)c2sccc2n1
Outline: as §1

[3] = compound: Cc1nc(Nc2ncc(C(=O)Nc3c(C)cccc3Cl)s2)cc(N2CCN(CCO)CC2)n1 [dasatinib]
Outline: as §1

[4] = compound: Cc1ncc(-c2ccnc(Nc3ccc(S(C)(=O)=O)cc3)n2)n1C(C)C
Outline: as §1

[5] = compound: Cn1cc(-c2ccc3c(c2)CCN3C(=O)Cc2cccc(C(F)(F)F)c2)c2c(N)ncnc21
Outline: as §1

[6] = compound: Cn1cc(CNCC2CCN(c3ncc(C(=O)NO)cn3)CC2)c2ccccc21 [quisinostat]
Outline: as §1

[7] = compound: Cn1cncc1[C@@](N)(c1ccc(Cl)cc1)c1ccc2c(c1)c(-c1cccc(Cl)c1)cc(=O)n2C [tipifarnib]
Outline: as §1

[8] = compound: NC(=O)Nc1cc(-c2cccc(F)c2)sc1C(=O)N[C@H]1CCCNC1
Outline: as §1

[9] = compound: NC(=O)c1cnc(N[C@@H]2CCCC[C@@H]2N)nc1Nc1cccc(-n2nccn2)c1
Outline: as §1

[10] = compound: NC1(c2ccc(-c3nc4ccn5c(=O)[nH]nc5c4cc3-c3ccccc3)cc2)CCC1
Outline: as §1

Measured: log2 fold change

MPHOSPH6 (UniProt Q99547)
inactive: [1] -0.064 | [2] 0.046 | [3] -0.004 | [4] -0.055 | [5] 0.068 | [6] -0.043 | [7] 0.016 | [8] 0.013 | [9] 0.006 | [10] -0.006

MRPL18 (UniProt Q9H0U6)
inactive: [1] -0.007 | [2] 0.055 | [3] -0.006 | [4] -0.036 | [5] 0.039 | [6] -0.119 | [7] -0.092 | [8] 0.06 | [9] 0.094

MON1B (UniProt Q7L1V2)
inactive: [1] -0.007 | [2] -0.016 | [3] -0.056 | [4] -0.029 | [5] 0.015 | [6] -0.017 | [7] 0.027 | [8] 0.009 | [9] -0.012 | [10] 0.005

MRAS (UniProt O14807)
inactive: [1] -0.094 | [2] -0.062 | [3] -0.034 | [4] -0.105 | [5] -0.041 | [6] 0.042 | [7] 0.035 | [8] -0.074 | [9] -0.149 | [10] -0.022

MND1 (UniProt Q9BWT6)
inactive: [1] 0.02 | [2] 0.022 | [3] 0.041 | [4] 0.009 | [5] -0.012 | [6] 0.007 | [7] 0 | [8] 0 | [9] -0.002 | [10] 0.068

MIS18A (UniProt Q9NYP9)
inactive: [1] 0.001 | [2] 0.044 | [3] -0.017 | [4] -0.017 | [5] 0.042 | [6] 0.007 | [7] 0.004 | [8] -0.016 | [9] -0.013 | [10] 0.048

MLLT1 (UniProt Q03111)
inactive: [1] -0.003 | [2] -0.006 | [3] 0.031 | [4] 0.076 | [5] -0.01 | [6] 0.005 | [7] -0.054 | [8] -0.027 | [9] -0.01 | [10] -0.024

MPV17 (UniProt P39210)
inactive: [1] 0.225 | [2] 0.041 | [3] 0.152 | [4] 0.072 | [5] 0.095 | [6] -0.011 | [7] -0.116 | [8] -0.132 | [9] -0.125 | [10] 0.015

MGAT4B isoform 3 (UniProt Q9UQ53)
inactive: [1] 0.091 | [2] -0.041 | [3] -0.009 | [4] -0.063 | [5] 0.142 | [6] 0.194 | [7] -0.037 | [8] -0.036 | [9] 0.058 | [10] 0.058

MORC2 (UniProt Q9Y6X9)
inactive: [1] -0.012 | [2] -0.02 | [3] -0.046 | [4] 0.006 | [5] 0.051 | [6] -0.05 | [7] 0.024 | [8] 0.049 | [9] 0.028 | [10] -0.001

MLXIP (UniProt Q9HAP2)
inactive: [1] 0.09 | [2] 0.003 | [3] -0.068 | [4] 0.003 | [5] 0.02 | [6] -0.04 | [7] 0 | [8] 0.082 | [9] -0.01 | [10] -0.028

MPZL1 (UniProt O95297)
inactive: [1] -0.03 | [2] 0.032 | [3] 0.033 | [4] -0.014 | [5] 0.018 | [6] 0.071 | [7] 0.035 | [8] -0.02 | [9] 0.026 | [10] 0.028

MRPL19 (UniProt P49406)
inactive: [1] 0.001 | [2] -0.015 | [3] -0.039 | [4] -0.004 | [5] 0.005 | [6] -0.055 | [7] 0.033 | [8] 0.024 | [9] -0.018 | [10] -0.044

MGAT1 (UniProt P26572)
inactive: [1] -0.032 | [2] -0.003 | [3] -0.037 | [4] 0.004 | [5] 0.088 | [6] 0.003 | [7] -0.186 | [8] 0.023 | [9] 0.083 | [10] 0.056

MOV10 (UniProt Q9HCE1)
inactive: [1] -0.027 | [2] -0.006 | [3] 0.007 | [4] -0.022 | [5] 0.005 | [6] -0.01 | [7] 0.029 | [8] 0.018 | [9] -0.015 | [10] -0.007

MIOS (UniProt Q9NXC5)
inactive: [1] -0.005 | [2] 0.003 | [3] 0.012 | [4] -0.019 | [5] 0.016 | [6] -0.017 | [7] 0.002 | [8] -0.001 | [9] -0.039 | [10] 0.016

MMS19 isoform 8 (UniProt Q96T76)
inactive: [1] -0.014 | [2] 0.019 | [3] -0.043 | [4] 0.018 | [5] -0.011 | [6] -0.056 | [7] -0.002 | [8] 0.053 | [9] 0.014 | [10] 0.004

MIEN1 (UniProt Q9BRT3)
inactive: [1] 0.006 | [2] -0.017 | [3] 0.015 | [4] 0.131 | [5] -0.015 | [6] 0.151 | [7] 0.06 | [8] -0.054 | [9] -0.068 | [10] 0.003

MRGBP (UniProt Q9NV56)
inactive: [1] 0.068 | [2] -0.168 | [3] 0.051 | [4] 0.079 | [5] -0.067 | [6] 0.089 | [7] -0.046 | [8] 0.012 | [9] 0.058 | [10] -0.047

MINK1 (UniProt Q8N4C8)
inactive: [1] -0.227 | [2] -0.206 | [3] -0.077 | [4] 0.199 | [5] -0.016 | [6] -0.062 | [7] 0.289 | [9] -0.023 | [10] 0.02
active: [8] 0.782

MKNK1 (UniProt Q9BUB5)
inactive: [1] 0.009 | [2] 0 | [3] -0.054 | [4] -0.017 | [5] 0.019 | [6] 0 | [7] 0.001 | [8] 0.024 | [9] 0.012 | [10] -0.001

MGST1 (UniProt P10620)
inactive: [1] 0.033 | [2] -0.002 | [3] -0.012 | [4] -0.017 | [5] 0.014 | [6] -0.029 | [7] 0.02 | [8] 0.085 | [9] -0.007 | [10] -0.012

MGST3 (UniProt O14880)
inactive: [1] 0.024 | [2] 0.016 | [3] 0.029 | [4] -0.019 | [5] -0.062 | [6] 0.016 | [7] -0.014 | [8] 0.009 | [9] -0.013 | [10] -0.031

MPC2 (UniProt O95563)
inactive: [1] 0.026 | [2] -0.01 | [3] -0.006 | [4] 0.01 | [5] 0 | [6] -0.068 | [7] -0.006 | [8] 0.042 | [9] 0.008 | [10] 0.027

MMAB (UniProt Q96EY8)
inactive: [1] 0.026 | [2] 0.01 | [3] -0.002 | [4] -0.002 | [5] -0.018 | [6] 0.061 | [7] 0.017 | [8] 0.023 | [9] 0.015 | [10] 0.043

MORC3 (UniProt Q14149)
inactive: [1] 0.001 | [2] 0.012 | [3] 0.006 | [4] -0.015 | [5] 0.046 | [6] -0.018 | [7] -0.01 | [8] 0.037 | [9] -0.017 | [10] -0.004

MPG (UniProt P29372)
inactive: [1] -0.023 | [2] -0.077 | [3] -0.037 | [4] -0.051 | [5] -0.006 | [6] 0 | [7] 0.019 | [8] 0.023 | [9] 0.005 | [10] -0.003

MPDU1 (UniProt O75352)
inactive: [1] 0.047 | [2] -0.035 | [3] 0.035 | [4] 0.042 | [5] 0.034 | [6] -0.107 | [7] -0.078 | [8] 0.01 | [9] -0.007 | [10] -0.059

MKRN1 (UniProt Q9UHC7)
inactive: [1] -0.139 | [2] 0.03 | [3] -0.031 | [4] -0.189 | [5] 0.126 | [6] -0.03 | [7] -0.063 | [8] -0.025 | [9] -0.018 | [10] 0.055

MRFAP1 (UniProt Q9Y605)
inactive: [1] 0.009 | [2] -0.027 | [3] 0.046 | [4] -0.139 | [5] 0.006 | [6] 0.061 | [7] -0.053 | [8] -0.105 | [9] 0.013 | [10] -0.052
